Experiment: Fat accumulation in genetic deficient mice with massive abdominal fat
Assay type: in vivo
Procedure: The mice were divided into control group and experimental group. […] In addition, the mice in the control group were peritoneally injections with 100 ul of PBS.
During the treatment period, the body weight and dietary intake of the mice were recorded at the regular time points. After the treatment, the gross views of whole animals were recorded by photographing. In the following, the fat pads of the mice were collected for the measurement of fat pad weight. The histological examination was performed to determine the number and size of the adipocytes in the mice of the both groups. Furthermore, the percentage of body fat was calculated according the formulation: (fat weight/body weight)×100%, and shown in table 4.

B1: present polypeptide: polypeptide comprising the amino acid sequence of SEQ ID No. 1; made by peptide synthesis, recombinant expression or extraction from Momordica charantia (peptide, listed as Artificial synthsis)
chain: SRCQGKSSWPQLVGSTGAAAKAWIERENPRVRAVIIKVGSGATKDFRCDRVRVWVTERGIVARPPTIG
In the case of B1, the Average dietary intake (Experimental mice, 2.5 nmol/kg peritoneal twice a week, 4 weeks, control 0.78 ± 0.22) is reported as 0.88 ± 0.17 g/day/mice and the “dietary intake during the treatment period compared with control group” value (experimental group vs control group, in words) is reported as “no obvious difference”.

— patent publication US11723946B2, “Methods for regulating transcription of multiple genes and expression of multiple targets” (CHINA MEDICAL UNIVERSITY, priority 2014, dated 2023)
